Test results: publication PMC10602555
The exact form of at least one protein or probe is not confirmed. Results from cells or extracts need not show a direct contact. A weaker result is weaker than the reference pair of the same experiment. At least one verdict rests on a figure or table, not on a statement of the authors.

Chains of the proteins cited; added tags and fusions are not shown. Lines headed by an entry give the natural chain unless they say otherwise; changes in a name come on top.
UniProt P05549: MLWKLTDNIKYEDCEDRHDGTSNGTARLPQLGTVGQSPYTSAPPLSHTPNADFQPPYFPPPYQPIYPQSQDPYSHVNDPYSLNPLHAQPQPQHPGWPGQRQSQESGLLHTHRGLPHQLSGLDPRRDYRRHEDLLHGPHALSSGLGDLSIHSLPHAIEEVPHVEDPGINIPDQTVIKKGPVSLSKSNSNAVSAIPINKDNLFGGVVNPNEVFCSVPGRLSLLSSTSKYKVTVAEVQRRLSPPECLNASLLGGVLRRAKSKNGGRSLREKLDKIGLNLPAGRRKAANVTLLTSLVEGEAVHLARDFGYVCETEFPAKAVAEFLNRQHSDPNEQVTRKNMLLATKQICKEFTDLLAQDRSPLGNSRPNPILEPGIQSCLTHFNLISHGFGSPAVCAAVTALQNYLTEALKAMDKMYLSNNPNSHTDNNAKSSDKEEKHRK

Molecular target: TFAP2A (UniProt P05549)
Experiment: EMSA supershift
Details: EJ nuclear extract, anti-TFAP2A, LightShift Chemiluminescent EMSA kit per manufacturer, unlabeled competitor 100x/200x added 20 min before labeled probe, protein in an extract

CGGCGGGGACGACCTGCAGCTCC (double strand) [rs62483508 A probe]
binding result (G allele preferred): binds more weakly

CGGCGGGGACGGCCTGCAGCTCC (double strand) [rs62483508 G probe]
binding result: binds
